# Reference: publication PMC12040169 (PLOS Biology, 2025)
# Some of the results follow.
# Test system: T1, CTL2-GFP (C. trachomatis L2/434/Bu, GFP-expressing)
# T1 construct: L2/434/Bu, GFP-expressing
# Design: species or system HeLa; Intracellular C. trachomatis growth in HeLa cells, bulk GFP fluorescence relative to DMSO
# Settings: bulk GFP, single well; 28.5 h, 10 µM; inhibitor
row,SMILES,% of control remaining [%]
1,NC(=S)NNC(=O)Nc1ccccc1 [CBK261595],105.399
2,O=C(Nc1ccc(NC(=O)c2cc(O)nc3ccccc23)cc1)c1ccccc1 [CBK269722],125.64
3,Nc1cc(NC(=O)c2cccc(C(=O)Nc3ccc(Cl)c(N)c3)c2)ccc1Cl [CBK261379],102.431
4,O=C(N/N=C\c1ccc([N+](=O)[O-])o1)c1nc(-c2ccccc2)cc(-c2ccccc2)n1 [CBK261958],4.779
5,CC1(C)CC(=O)c2sc(NC(=O)c3ccc(OC(F)(F)F)cc3)nc2C1 [CBK144102],111.971
6,CC1CC(NC(=S)NCc2csc3ccccc23)CC(C)(C)C1 (stereo not shown) [CBK013824],126.014
7,COc1ccc(Cl)cc1/C=C/C(=O)NCc1ccc(C(=O)O)cc1 [CBK286908],150.674
8,Fc1ccc(CSc2nc3ccccc3nc2C(F)(F)F)cc1 [CBK107199],100
9,O=C(Cc1cccc(F)c1)N1CCC(O)(c2cccnc2F)CC1 [CBK284362],107.3
10,Cn1c(SCC(=O)Nc2ccc(Br)cc2C(F)(F)F)nnc1-c1ccncc1 [CBK265905],119.915
11,COC(=O)c1cccc(Oc2nc(OC)cc(OC)n2)c1 [CBK092219],100.726
12,CCn1ncc(CN2CCN(C(=S)Nc3ccccc3C(F)(F)F)CC2)c1C [CBK266968],170.344
13,COc1cc(-c2nc(N)cc3ccccc23)cc(OC)c1OC [CBK085726],86.9063
14,COc1cc(/C=N/NC(=O)c2ccncc2)ccc1OC(=O)c1cccs1 [CBK262278],87.7817
15,NC(=S)Nn1c(CCC(=O)O)ccc1-c1ccccc1 [CBK265942],119.27
16,Nc1ccc(CCNC(=O)c2cnc(-c3cccc(C(F)(F)F)c3)c(-c3ccncc3)c2)cc1 [CBK037580],237.281
17,Cc1ccc(OC(C)c2nc(-c3nonc3N)no2)cc1C (stereo not shown) [CBK025698],105.773
18,Cc1ccc(CS(=O)(=O)N2CCC3(CC2)CNC(=O)C3)cc1 [CBK283344],113.382
19,COc1ccccc1CNC(=O)c1cnc2scc(C)n2c1=O [CBK287293],89.4875
20,O=C(c1ccccc1-n1cccc1)N1CCCC1 [CBK149608],107.685
21,CC(C)N1CC[C@H]2CN(C(=O)CCC(=O)O)CC[C@H]2CC1=O [CBK288789],122.623
22,Clc1cccc(CNc2cncc(-c3cccs3)n2)c1 [CBK065609],95.5357
23,CN(C)CCNC(=O)Cn1c(-c2ccc(F)cc2)cc2cccnc21 [CBK284820],83.2915
24,Cc1c(C(=O)O)sc(S(=O)(=O)N2CCN(C(=O)Cc3ccccc3)CC2)c1C(=O)O [CBK297148],103.133
25,CN1CCN(NC(=O)c2cccc(COc3ccccc3Cl)c2)CC1 [CBK265765],135.61
26,CCOc1cc(F)ccc1NC(=O)CC1CCN(c2nc(C)cc(C)n2)CC1 [CBK285958],102.204
27,O=C1CN(C(=O)NCC2CCCCC2)CCN1 [CBK155854],113.102

row,SMILES,% of control remaining [%]
1,Cc1cc(/C=C(/C#N)c2ccc([N+](=O)[O-])cc2)c(C)n1-c1ccc(S(N)(=O)=O)cc1 [CBK266737],135.731
2,CN(Cc1ccc(-c2ccc(CO)cc2)nc1)C1CCN(C(=O)OC(C)(C)C)CC1 [CBK173453],126.132
3,CC(C)(C)C(=O)N1CCc2c([nH]c3ccccc23)C12CCNC2 (stereo not shown) [CBK059462],122.191
4,CC1(C)Cc2c(sc(NC(=O)c3ccccc3Cl)c2C(=O)O)CO1 [CBK126806],93.817
5,O=C1CN(C(=O)c2cc(-c3ccncc3)nc3ccccc23)CCN1 [CBK304370],104.82
6,Cn1c(O)c(CCNc2cc(C3CCOC3)ncn2)cnc1=O (stereo not shown) [CBK307648],76.1679
7,c1ccc(-c2nnc(SCc3nnc(-c4ccccc4)o3)[nH]2)cc1 [CBK270003],109.105
8,COCc1cccc(-c2ncc(OCCN3CCCC3=O)nc2N)c1 [CBK145110],110.018
9,COc1cccc(Cc2cccc(C3CCN(C(=O)Cc4ccccc4)CC3)n2)c1 [CBK286147],109.261
10,Cc1cc(C(F)(F)F)n2ncc(C(=O)N3CCCC3c3ccco3)c2n1 (stereo not shown) [CBK306557],94.6172
11,c1ccc(-c2nc(C3CC3)n3ccccc23)cc1 [CBK149257],123.643
12,O=C1NC2(CCOCC2)C(=O)N1Cc1ncc(-c2cccs2)o1 [CBK304187],131.395
13,Cc1ccc(S(N)(=O)=O)cc1C(=O)OCC(=O)c1ccccc1 [CBK264588],90.1657
14,C=C(C)Cn1c(=O)nc(N)c2c3c(sc21)CCC3 [CBK287986],117.075
15,O=S(=O)(CC(F)(F)F)Nc1cccc(-c2nnn[nH]2)c1 [CBK154272],109.23
16,CCCCCCN1CCC2CN(CCCC(=O)c3ccc(F)cc3)CCN2C1=O (stereo not shown) [CBK024890C],124.486
17,Cc1csc(-c2cn3ccnc3c(N(C)CCN(C)C)n2)c1 [CBK066553],190.938
18,Cn1c(SCC(=O)c2ccccc2)nnc1-c1ccc(NC(=O)c2ccccc2Cl)cc1 [CBK264357],134.275
19,CC1=C[C@@H](CNC(=O)c2ccncc2)[C@H](C(C)C)C[C@H]1CC(=O)N1CCOCC1 [CBK289052],134.044
20,Cc1nn(C)c2nc(NCc3ccc(C(=O)N4CCCCC4)cc3)sc12 [CBK306826],109.992
21,O=C(CCc1cccnc1)N1CCCCC1c1nc2cc(F)ccc2[nH]1 (stereo not shown) [CBK291106],85.744
22,COC(=O)CCC1(C)CN(C)CCC1=O (stereo not shown) [CBK028494],128.192
23,CC(C)(CN)CN(Cc1ccccc1C(F)(F)F)C(=O)NCc1ccc(F)cc1 [CBK002471C],105.937
24,Cc1ccccc1Cc1cccc(C2CCN(C(=O)Cc3ccccc3)CC2)n1 [CBK285625],123.052
25,O=C(Cc1cccnc1)N1CCC(Cc2ccccc2)CC1 [CBK200183],161.033
26,O=C(O)c1nccnc1C(=O)N1CCC(O)(c2ccc(Cl)cc2)CC1 [CBK286621],123.33
27,Cn1c(=O)n(C)c2cc(NC3=NS(=O)(=O)c4ccccc43)ccc21 [CBK270210],107.144

row,SMILES,% of control remaining [%]
1,Cc1nc(SCCn2cccn2)c2c(=O)n(C)c(=O)n(CC(C)C)c2n1 [CBK306321],101.469
2,CSCCCNC(=O)N1CCCCC1CO (stereo not shown) [CBK156163],109.395
3,CCn1cc(CN2CCCC(c3cc4cccnc4[nH]3)C2)c(C)n1 (stereo not shown) [CBK284701],109.499
4,COc1ccc(Nc2nc(-c3ccccc3)c(C)s2)c(OC)c1 [CBK131709],94.2135
5,COc1ccc(N(CCN2CCCCC2)S(=O)(=O)c2ccc(C)cc2)cc1 [CBK261131],100
6,Cc1onc(-c2ccccc2)c1C(=O)Nc1ccc(N2CCNCC2)c2ccccc12 [CBK038942T],124.58
7,COc1ccc(C(=O)/C=C/Nc2ccc(S(=O)(=O)NC(=N)N)cc2)cc1 [CBK262277],127.766
8,Cn1cc(CCCC(=O)NC2CCCOC2)c2ccccc21 (stereo not shown) [CBK282486],136.244
9,CCN(CC)C(=O)NC(c1ccccc1OC)c1nccn1C (stereo not shown) [CBK283803],130.266
10,CN(C)CCN(C)c1cc(-c2cccc(-c3ccccc3)c2)ncn1 [CBK037763],205.243
11,Cc1nn(Cc2ccccc2)c(C)c1CC(=O)NCCn1ccnc1 [CBK282095],127.574
12,CCOC(=O)Cc1csc(SC(C)C(=O)N2CCCc3ccccc32)n1 (stereo not shown) [CBK304228],131.48
13,CN1CCC(N2CCN(C(=O)c3ccc4nc[nH]c4c3)CC2)CC1 [CBK149099],113.906
14,COc1ccc(Nc2ncc(C(=O)NCCCN3CCCC3)c3ccccc23)cc1 [CBK291114],98.1127
15,Oc1ccc2[nH]cc(CCNC(c3ccccc3)(c3ccccc3)c3ccccc3)c2c1 [CBK260891],66.2745
16,COC(=O)c1cc(C#N)c(=O)n(CC(O)COc2c(C)cccc2C)c1 (stereo not shown) [CBK305709],117.046
17,Cc1c(-c2ccc(Cl)cc2Cl)nc2ccccc2c1C(=O)NCCCc1ccccc1 [CBK262635],80.7101
18,CC1(C)NC(=O)N(CC(O)CNC23CC4CC(CC(C4)C2)C3)C1=O (stereo not shown) [CBK264823],131.605
19,CCOC(=O)c1[nH]c2ccccc2c1NC(=O)CS(=O)(=O)c1ccc(C)cc1 [CBK160162],146.367
20,COc1ncc(-c2cnc3[nH]c(=O)n([C@H](C)c4ccccc4)c3n2)cn1 [CBK064401],89.5188
21,CC(c1ccc(Cl)cc1Cl)N(C)C(=O)c1ccc(S(C)(=O)=O)cc1 (stereo not shown) [CBK242418],109.351
22,CN(C)c1ccc(C2C(C(=O)c3ccccc3)=C(O)C(=O)N2CCCC(=O)O)cc1 (stereo not shown) [CBK263393],117.894
23,CCn1c(C(C)Oc2ccc(Cl)cc2)n[nH]c1=S (stereo not shown) [CBK015099],105.471
24,Nc1ccccc1SC(CC(=O)c1ccccc1)c1ccc2c(c1)OCO2 (stereo not shown) [CBK074823],100.139
25,NC(=O)c1ccccc1NC(=O)CCN1C(=O)c2cccc([N+](=O)[O-])c2C1=O [CBK263118],91.1468

# Looked up one by one from the entries so far (five):
row,SMILES,% of control remaining [%]
5,COc1ccc(N(CCN2CCCCC2)S(=O)(=O)c2ccc(C)cc2)cc1 [CBK261131],100
3,CCn1cc(CN2CCCC(c3cc4cccnc4[nH]3)C2)c(C)n1 (stereo not shown) [CBK284701],109.499
14,COc1ccc(Nc2ncc(C(=O)NCCCN3CCCC3)c3ccccc23)cc1 [CBK291114],98.1127
13,CN1CCC(N2CCN(C(=O)c3ccc4nc[nH]c4c3)CC2)CC1 [CBK149099],113.906
4,COc1ccc(Nc2nc(-c3ccccc3)c(C)s2)c(OC)c1 [CBK131709],94.2135
